For part of its entries the source gives two or more results. They are shown here; other results are not. The source may hold further records. Results that share an entry seem to repeat one measurement (runs, samples, wells or individuals).
Test system: rat osteocalcin promoter
Test: OCN (osteocalcin) promoter assay
Type: cell-based
Conditions: read-out: OCN Promoter EC50; RG-15 (ROS 17/2.8) cells, 48 hr treatment; Table 1

Row | Compound | EC50
1 | CCc1cc(C(CC)(CC)c2ccc(C(=O)N(C)C)o2)ccc1OCC(O)C(C)(C)C (single isomer, unassigned) | 1.6 nM and 0.5 nM
2 | CCCc1cc(C(CC)(CC)c2ccc(C(=O)N(C)C)o2)ccc1OCC(O)C(C)(C)C (single isomer, unassigned) | 0.5 nM and 0.1 nM

Reference: patent US7468449B2, “Phenyl-furan compounds as vitamin D receptor modulators” (Eli Lilly and Company, priority 2003, dated 2008)
